Reference: PubChem BioAssay AID743121 (NCATS, 2013)
This is a random part of about 26,000 reagents tested. 167 of them (0.63%) count as active. 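Calls are per gene from RSA p-values that are not deposited; an individual active-marked siRNA can sensitise only weakly.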 Not all columns of the deposit are shown.

- Test: 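Genes whose silencing strengthens cell killing by camptothecin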 (primary screen)
- System: MDA-MB-231 cells, a human breast cancer line
- Knock-down reagent: single siRNA against human genes, 20 nM siRNA (0.8 pmol per well)
- Timing: 120 h (drug added 48 h after transfection, read 72 h later)
- Treatment: camptothecin 20 nM (about EC30) for 72 h; vehicle 0.1% DMSO in parallel plates
- Detection: 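Cell viability by ATP luminescence (CellTiter-Glo) as % of non-targeting siRNA wells, and the log2 ratio of viability without drug over viability with camptothecin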
- Direction: log2 vehicle/camptothecin viability: higher = stronger sensitisation to camptothecin; viability with camptothecin: higher = more viable cells
- Units: viability with camptothecin in % of control
- Rule for the call: 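Active genes have an RSA gene-level p-value below 0.001, computed from the ratios of their separate siRNAs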

Silencing of STX16 [SID164399158] gave: log2 vehicle/camptothecin viability -0.518; viability with camptothecin 69.1; inactive.
With knock-down of STX16 [SID164399159], the record shows log2 vehicle/camptothecin viability 0.187; viability with camptothecin 75.5; inactive.
STX16 [SID164399160] gave log2 vehicle/camptothecin viability -0.122; viability with camptothecin 47.3; inactive.
STX16 [SID164399163] gave log2 vehicle/camptothecin viability -0.137; viability with camptothecin 82.6; inactive.
For TFAP4 [SID164391491] the deposit lists log2 vehicle/camptothecin viability -0.142; viability with camptothecin 105; inactive.
After knock-down of TFAP4 [SID164391492], the screen gave log2 vehicle/camptothecin viability -0.379; viability with camptothecin 78; inactive.
TFAP4 [SID164391493] scored log2 vehicle/camptothecin viability -0.44; viability with camptothecin 86.7; inactive.
After knock-down of TFAP4 [SID164391494] the results were log2 vehicle/camptothecin viability -0.177; viability with camptothecin 74.3; inactive.
Against EIF2AK1 [SID164462435] the deposit lists log2 vehicle/camptothecin viability -0.775; viability with camptothecin 59.3; inactive.
After knock-down of EIF2AK1 [SID164462436], the record shows log2 vehicle/camptothecin viability 0.096; viability with camptothecin 77.7; inactive.
Against EIF2AK1 [SID164462437], the values are log2 vehicle/camptothecin viability 0.158; viability with camptothecin 75.2; inactive.
Depletion of EIF2AK1 [SID164462439] resulted in: log2 vehicle/camptothecin viability -0.106; viability with camptothecin 71.5; inactive.
Depletion of CYP4X1 [SID164611146] resulted in: log2 vehicle/camptothecin viability 0.238; viability with camptothecin 71.8; inactive.
Against CYP4X1 [SID164611147], the entry reads log2 vehicle/camptothecin viability -0.0407; viability with camptothecin 90.2; inactive.
CYP4X1 [SID164611149] gave log2 vehicle/camptothecin viability 0.539; viability with camptothecin 24.5; inactive.
Depletion of CYP4X1 [SID164611150] came out at: log2 vehicle/camptothecin viability -0.492; viability with camptothecin 52.6; inactive.
TXN2 [SID164457195] gave log2 vehicle/camptothecin viability -0.479; viability with camptothecin 53; inactive.
TXN2 [SID164457197] scored log2 vehicle/camptothecin viability -0.572; viability with camptothecin 83.8; inactive.
Against TXN2 [SID164457198], the values are log2 vehicle/camptothecin viability -0.0759; viability with camptothecin 47.3; inactive.
Knock-down of TXN2 [SID164457199] resulted in: log2 vehicle/camptothecin viability -0.514; viability with camptothecin 35.6; inactive.
NHLRC2 [SID164672794] gave log2 vehicle/camptothecin viability -0.0851; viability with camptothecin 76.7; inactive.
Silencing of NHLRC2 [SID164672795] resulted in: log2 vehicle/camptothecin viability -0.25; viability with camptothecin 106; inactive.
NHLRC2 [SID164672798] showed log2 vehicle/camptothecin viability -0.554; viability with camptothecin 73.4; inactive.
Against NHLRC2 [SID174315990] the deposit lists log2 vehicle/camptothecin viability -0.197; viability with camptothecin 101; inactive.
Against HRH1 [SID164369998], the values are log2 vehicle/camptothecin viability -0.499; viability with camptothecin 91.5; inactive.
For HRH1 [SID164369999], the entry reads log2 vehicle/camptothecin viability 0.0673; viability with camptothecin 37.6; inactive.
HRH1 [SID164370001] showed log2 vehicle/camptothecin viability -0.104; viability with camptothecin 102; inactive.
For HRH1 [SID164370002] the deposit lists log2 vehicle/camptothecin viability -0.0369; viability with camptothecin 83.9; inactive.
AKR7L [SID164603944] scored log2 vehicle/camptothecin viability -0.11; viability with camptothecin 108; inactive.
For AKR7L [SID164603945], the values are log2 vehicle/camptothecin viability -0.215; viability with camptothecin 119; inactive.
Against AKR7L [SID164603946] the deposit lists log2 vehicle/camptothecin viability -0.0811; viability with camptothecin 101; inactive.
Depletion of AKR7L [SID164603947] came out at: log2 vehicle/camptothecin viability -0.57; viability with camptothecin 31; inactive.
With knock-down of CYP26A1 [SID164360886], the screen gave log2 vehicle/camptothecin viability -0.396; viability with camptothecin 73.8; inactive.
After knock-down of CYP26A1 [SID164360887] the results were log2 vehicle/camptothecin viability -0.235; viability with camptothecin 120; inactive.
After knock-down of CYP26A1 [SID164360888], the record shows log2 vehicle/camptothecin viability 0.219; viability with camptothecin 21.8; inactive.
With knock-down of CYP26A1 [SID164360889] the results were log2 vehicle/camptothecin viability -0.614; viability with camptothecin 99.7; inactive.

4 consecutive records from above:
CYP4X1 [SID164611150] — log2 vehicle/camptothecin viability = -0.492; viability with camptothecin = 52.6; activity call = inactive
TXN2 [SID164457195] — log2 vehicle/camptothecin viability = -0.479; viability with camptothecin = 53; activity call = inactive
TXN2 [SID164457197] — log2 vehicle/camptothecin viability = -0.572; viability with camptothecin = 83.8; activity call = inactive
TXN2 [SID164457198] — log2 vehicle/camptothecin viability = -0.0759; viability with camptothecin = 47.3; activity call = inactive
